In PMC4778861, “Type One Protein Phosphatase 1 and Its Regulatory Protein Inhibitor 2 Negatively Regulate ABA Signaling” (PLoS Genetics, 2016):
No constants are given. Whether binding was seen depends on the method and setting. Some results given as binding are weak or reduced against the parent protein; the word gives no strength. Where a sequence is shown, tags or fusion partners need not be part of it.

Protein sequences, listed by entry. Tags and fused reporters are not part of them.
UniProt P30366: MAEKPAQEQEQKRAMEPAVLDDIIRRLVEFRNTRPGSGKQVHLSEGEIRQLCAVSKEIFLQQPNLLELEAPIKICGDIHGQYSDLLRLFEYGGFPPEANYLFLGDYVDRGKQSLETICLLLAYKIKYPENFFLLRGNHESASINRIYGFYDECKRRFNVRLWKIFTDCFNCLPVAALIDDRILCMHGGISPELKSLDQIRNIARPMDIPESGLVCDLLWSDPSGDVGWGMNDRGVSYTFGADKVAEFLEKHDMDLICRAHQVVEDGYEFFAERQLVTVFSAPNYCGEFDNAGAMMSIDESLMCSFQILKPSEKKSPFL

What was measured:
[1] = molecular target: T1, BD-PYL4 (Arabidopsis thaliana) (UniProt O80920); test: two-hybrid; AD fusions with BD-PYLs in S. cerevisiae AH109; growth on SD medium lacking Leu, Trp, His in the presence of 10 uM ABA
T1 sequence: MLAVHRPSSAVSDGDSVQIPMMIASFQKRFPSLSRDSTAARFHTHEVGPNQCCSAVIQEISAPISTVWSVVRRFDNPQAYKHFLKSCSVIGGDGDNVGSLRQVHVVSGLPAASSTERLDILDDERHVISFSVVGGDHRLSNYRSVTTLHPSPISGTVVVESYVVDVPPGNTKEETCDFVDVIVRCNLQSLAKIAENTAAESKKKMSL

[2] = molecular target: T2, BD-PYL9 (Arabidopsis thaliana) (UniProt Q84MC7); test: as above
T2 sequence: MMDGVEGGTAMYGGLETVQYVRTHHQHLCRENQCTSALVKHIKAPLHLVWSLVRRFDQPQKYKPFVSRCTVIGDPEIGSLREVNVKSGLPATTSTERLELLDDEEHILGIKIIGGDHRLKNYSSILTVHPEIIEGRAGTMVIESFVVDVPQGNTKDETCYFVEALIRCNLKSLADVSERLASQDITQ

[3] = molecular target: T3, BD-PYL11 (Arabidopsis thaliana) (UniProt Q9FJ50); test: as above
T3 sequence: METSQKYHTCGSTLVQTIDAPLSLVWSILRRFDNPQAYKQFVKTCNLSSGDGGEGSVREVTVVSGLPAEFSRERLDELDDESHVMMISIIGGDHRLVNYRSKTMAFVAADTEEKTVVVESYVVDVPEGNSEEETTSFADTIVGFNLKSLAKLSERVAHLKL

[4] = molecular target: T4, BD-SnRK2.4 (Arabidopsis thaliana) (UniProt P43291); test: two-hybrid; AD fusions (pGADT7) with BD fusions in S. cerevisiae AH109; growth on SD medium lacking Leu, Trp, His in the absence or presence of 10 uM ABA (the text does not tell the two apart); 1 mM 3-AT to reduce self-activation of BD-SnRK2s; 30°C
T4 sequence: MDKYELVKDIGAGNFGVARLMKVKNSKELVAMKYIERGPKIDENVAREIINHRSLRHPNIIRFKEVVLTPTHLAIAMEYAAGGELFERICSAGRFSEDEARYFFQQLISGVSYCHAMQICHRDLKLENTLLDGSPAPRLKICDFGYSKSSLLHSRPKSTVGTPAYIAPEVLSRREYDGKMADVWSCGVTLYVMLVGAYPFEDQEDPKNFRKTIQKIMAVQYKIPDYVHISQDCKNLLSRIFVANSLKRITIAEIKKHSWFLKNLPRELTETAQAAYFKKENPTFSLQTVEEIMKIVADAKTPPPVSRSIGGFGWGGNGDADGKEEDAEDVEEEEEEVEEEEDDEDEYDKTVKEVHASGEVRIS

[5] = molecular target: T5, BD-SnRK2.8 (Arabidopsis thaliana) (UniProt Q9M9E9); test: as above
T5 sequence: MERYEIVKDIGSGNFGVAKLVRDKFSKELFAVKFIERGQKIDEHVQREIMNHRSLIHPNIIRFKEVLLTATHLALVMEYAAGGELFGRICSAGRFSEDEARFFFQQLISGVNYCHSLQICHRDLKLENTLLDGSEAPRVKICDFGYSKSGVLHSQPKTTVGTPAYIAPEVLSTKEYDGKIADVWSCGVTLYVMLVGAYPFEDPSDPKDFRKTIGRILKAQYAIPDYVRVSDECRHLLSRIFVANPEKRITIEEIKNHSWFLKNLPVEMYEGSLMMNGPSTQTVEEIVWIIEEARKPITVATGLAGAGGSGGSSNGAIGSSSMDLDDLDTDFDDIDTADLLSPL

[6] = molecular target: T6, BD-SnRK2.2 (Arabidopsis thaliana) (UniProt Q39192); test: as above
T6 sequence: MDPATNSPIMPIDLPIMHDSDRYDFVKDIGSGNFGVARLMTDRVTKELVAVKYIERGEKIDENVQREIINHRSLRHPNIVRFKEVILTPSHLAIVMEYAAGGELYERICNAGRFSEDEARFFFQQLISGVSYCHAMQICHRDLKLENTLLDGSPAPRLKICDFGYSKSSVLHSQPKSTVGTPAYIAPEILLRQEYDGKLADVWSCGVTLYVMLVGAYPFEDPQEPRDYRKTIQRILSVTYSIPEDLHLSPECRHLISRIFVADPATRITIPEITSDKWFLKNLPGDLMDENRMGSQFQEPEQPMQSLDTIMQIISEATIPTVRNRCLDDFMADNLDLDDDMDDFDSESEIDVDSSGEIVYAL

[7] = molecular target: T7, BD-SnRK2.3 (Arabidopsis thaliana) (UniProt Q39193); test: as above
T7 sequence: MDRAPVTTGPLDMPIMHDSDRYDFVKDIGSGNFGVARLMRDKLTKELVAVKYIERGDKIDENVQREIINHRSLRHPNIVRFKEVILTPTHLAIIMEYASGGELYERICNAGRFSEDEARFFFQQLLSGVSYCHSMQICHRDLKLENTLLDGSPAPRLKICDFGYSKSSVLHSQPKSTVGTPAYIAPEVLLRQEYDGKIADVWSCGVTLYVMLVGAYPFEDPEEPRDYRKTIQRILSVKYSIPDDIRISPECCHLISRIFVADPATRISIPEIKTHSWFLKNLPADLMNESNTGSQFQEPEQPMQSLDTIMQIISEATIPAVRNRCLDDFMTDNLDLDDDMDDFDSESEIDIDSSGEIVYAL

[8] = molecular target: T8, BD-SnRK2.6 (Arabidopsis thaliana) (UniProt Q940H6); test: as above
T8 sequence: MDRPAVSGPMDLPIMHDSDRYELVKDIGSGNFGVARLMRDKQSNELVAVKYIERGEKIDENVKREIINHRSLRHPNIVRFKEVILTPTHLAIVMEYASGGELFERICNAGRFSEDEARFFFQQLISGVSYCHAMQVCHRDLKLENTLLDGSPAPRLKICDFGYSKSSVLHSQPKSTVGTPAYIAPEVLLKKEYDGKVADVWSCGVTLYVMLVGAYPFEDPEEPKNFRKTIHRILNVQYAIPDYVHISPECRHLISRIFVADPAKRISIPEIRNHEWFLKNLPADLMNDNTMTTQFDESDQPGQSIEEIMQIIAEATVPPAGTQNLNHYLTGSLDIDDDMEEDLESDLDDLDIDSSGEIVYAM

[9] = molecular target: T1, BD-PYL4 (Arabidopsis thaliana); test: two-hybrid; AD fusions with BD-PYLs in S. cerevisiae AH109; growth on SD medium lacking Leu, Trp, His in the absence of ABA
[10] = molecular target: T2, BD-PYL9 (Arabidopsis thaliana); test: as above
[11] = molecular target: T3, BD-PYL11 (Arabidopsis thaliana); test: as above

binding [1]: binds
binding [2]: binds
binding [3]: binds
binding [4]: binds
binding [5]: binds
binding [6]: binds
binding [7]: binds
binding [8]: binds
binding [9]: binds
binding [10]: binds
binding [11]: binds
Substance: AD-TOPP1 (from UniProt P30366 1-318) (enzyme)
